Test system: Human immunodeficiency virus
Experiment: microbe, parasite or virus in culture
Format: functional, organism-based
Details: Human immunodeficiency virus 1, 2C4

## Nc1ccc(-c2cccs2)cc1NC(=O)c1ccc(N2CCC3(CC2)CNC(=O)O3)nc1
  EC50: 15.7 µM
